Data published in the supplement of paper PMC10338343.
± gives the standard deviation. The entries are a selection whose mix differs from that of the whole data set. The uncertainty is large for many entries.

system: MIWI (PIWIL1) piRISC loaded with L1MC piRNA (30 nt); assay: pre-steady-state target cleavage rate (min^-1); MIWI and MILI are mouse PIWI proteins and EfPiwi is from a freshwater sponge; tags in brackets are library labels; higher = faster piRNA-guided slicing of the target; conditions: guide: L1MC piRNA 5'p-UAACUAAAUACUAUGCAAGCUGUAGGUCCU; auxiliary factor: 500 nM mouse GTSF1
Procedure, shortened: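 Active affinity-purified piRISC carrying one synthetic guide (1 nM) was mixed with a transcribed, DNA-blocked target RNA library […] in HEPES–potassium acetate buffer at 33 °C for 0–8 or 0–960 min, with or without 500 nM GTSF1 partner protein. Uncleaved targets were then sequenced and normalised to depth and to weakly complementary targets. Three trials were pooled, and k3 was capped at 0.0001 min^-1. A burst-and-steady-state fit was applied to obtain the pre-steady-state cleavage rate.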
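Note: 1 nM active piRISC with 0.1 nM target library at 33 °C single turnover.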

Sequence	pre-steady-state target cleavage rate
UCCUGGUACAGCUUCCAUAGUUUUUAGUUA	0.00197 ± 0.007
UCCUGGUACAGGUUGCAUAGUAUUUACUUA	0.125 ± 0.035
UCCUGGAUGUCGAACGUAUCUAUUUAGUUA [g2:g10:cont:t1A]	0.000291 ± 0.017
UCCUGGAUGAGCUUGGUAAGUAUUUACAAA	0.000485 ± 0.02
UCCUGGAUGUCCUUGCUAUGUAUUUAGUUA	0.00241 ± 0.0058
UCCUCCUACAGCUUGCAUAGUAUUUAGUUA [g2:g26:cont:t1A]	1.32 ± 0.052
UCCUGGAUCACGAUGCAUAGUAUUUAGAAA	0.00266 ± 0.0053
UCCUGGAUGUCGUUGCAUAGGUAUUUAGUUA	0.000789 ± 0.013
UCCUCCUACACCUUGCAUAGAAUUUAGUUA	0.341 ± 0.082
UCCUGGUACAGCUUCGUUAGUAUUUUCAAA	0.00107 ± 0.01
UCCUGCUACAGCUUGCAUAUAUUUAGUUA	0.408 ± 0.045
UCCUGGAUCAGCUUGCAUAGUAUAUAGUAA	0.458 ± 0.054
UCCUGCAACAGCUUGCAUAGUAUUUAGUAA	1.22 ± 0.083
UCCUGGAUGUCCUUGCAUAGUAUAUAGUAA	0.00263 ± 0.0048
UCCUGGAUCAGGUUCCAUAGUAUUUAGUUA	0.00405 ± 0.0044
UCCUCCUACAGCUUCGAUAGUAUUUAGUAA	0.263 ± 0.031
UCCUGGAACAGCUUGCAUAGUAUUUAGUUA [g2:g23:cont:t1A]	1.18 ± 0.034
UCCUCCUACAGCUUGCAUACUAUUAAGUUA	0.147 ± 0.022
UCCUGGAUCAGCAUGCAUAGUAUUUAGAUA	0.375 ± 0.034
UCCUGGAUGUCGUUGCAUAGUAUUUAUUA	0.000316 ± 0.034

In another format: results already given
UCCUCCUACAGCUUCGAUAGUAUUUAGUAA
  pre-steady-state target cleavage rate: 0.263 ± 0.031
UCCUGGAACAGCUUGCAUAGUAUUUAGUUA [g2:g23:cont:t1A]
  pre-steady-state target cleavage rate: 1.18 ± 0.034

The results go on.

Sequence	pre-steady-state target cleavage rate
UCCUGGAUGUCGAAGCAUAGUAUUUAUUUA	0.000904 ± 0.011
UCCUGGAUGUCCUUGCAUAGUAUUUUCAUA	0.00378 ± 0.0042
UCCUGGAUCAGCUUGCAUACAUUUUACAAA	0.000861 ± 0.013
UCCUGCACAGCUUGCAUAGUAUUUAGUUA	1.34 ± 0.073
UCCUGGAACAGCUUGCAUAGGUAUUUAGUUA	0.00266 ± 0.0049
UCCUGGAUGUCGAACCAUUCUAUUUAGUUA	0.000502 ± 0.01
UCCUGGAUCAGCUACGAUAGUAUUUAGUAA	0.0009 ± 0.011
UCCUGGAUGUCCAACCAUAGUAUUUAGUAA	0.00235 ± 0.0047
UCCUGCCUACAGCUUGCAUAGUAUUUAGUUA	1.33 ± 0.091
UCCUGGAUGUGCUUCCAUUGUAUUUAGUUA	0.00178 ± 0.006
UCCUGGAUCAGCUACGAUAGUAUUUAGUUA	0.00305 ± 0.0044
UCCUGGAUGUCCUUGCAUAGUAUUUAUUA	0.00333 ± 0.0051
UCCUGGAUGUCGAUGCAUAGUAUUGUAGUUA	0.0018 ± 0.006
UCCUGGUACAGCUUGCAUACAUUUUUCAAA	0.000835 ± 0.013
UCCUGGAUGUGCUUGCAUAGUAUUAGUUA	0.002 ± 0.0064
UCCUGGAUGUCCUUGCAUAGAAUUUUGUUA	0.0014 ± 0.0082
UCCUGGAUGUCCUUGCAAACUAUUUAGUUA	0.00325 ± 0.0044
UCCUGGAUGUCCUUGCAAUCUAUUUAGUUA	0.00205 ± 0.0055
UCCUGCUACAGCUUGCAUAGUAUUUUCAUA	0.295 ± 0.055
UCCUGGAUGUGGAUGCAUAGUAUUUAGAAA	0.00077 ± 0.012
